Results are given in words; binding and its absence hold for the method and conditions named. For part of these data: Binding seen in cells or lysates may run through a third protein. Some results given as binding are weak or reduced against the parent protein; the word gives no strength. For part of these data: Where a sequence is shown, tags or fusion partners need not be part of it.

Sequences of proteins named here, by UniProt entry; tags and fusion partners are left off.
UniProt P27986: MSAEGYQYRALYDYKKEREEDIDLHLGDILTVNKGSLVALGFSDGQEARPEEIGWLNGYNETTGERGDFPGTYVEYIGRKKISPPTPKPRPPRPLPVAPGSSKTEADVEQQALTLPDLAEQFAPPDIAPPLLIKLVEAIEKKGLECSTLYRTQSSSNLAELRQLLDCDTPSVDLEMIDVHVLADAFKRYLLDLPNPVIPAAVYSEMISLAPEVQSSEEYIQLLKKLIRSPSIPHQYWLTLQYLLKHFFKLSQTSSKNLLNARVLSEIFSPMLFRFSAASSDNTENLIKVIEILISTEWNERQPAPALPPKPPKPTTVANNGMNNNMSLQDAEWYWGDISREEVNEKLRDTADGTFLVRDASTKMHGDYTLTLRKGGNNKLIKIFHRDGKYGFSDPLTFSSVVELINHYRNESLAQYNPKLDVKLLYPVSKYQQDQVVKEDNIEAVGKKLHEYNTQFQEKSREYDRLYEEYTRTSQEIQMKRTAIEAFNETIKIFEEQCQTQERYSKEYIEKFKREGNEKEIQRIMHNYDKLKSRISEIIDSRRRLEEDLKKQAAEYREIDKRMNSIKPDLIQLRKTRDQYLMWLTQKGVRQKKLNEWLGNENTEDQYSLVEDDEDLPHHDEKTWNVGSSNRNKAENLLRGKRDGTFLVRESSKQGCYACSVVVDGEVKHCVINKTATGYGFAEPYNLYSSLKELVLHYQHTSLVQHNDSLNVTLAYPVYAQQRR

The target of experiment [1] is T1, SEPT2 (wild type, in the whole-cell lysate of the co-IP with P85α) (UniProt Q15019).
T1 sequence: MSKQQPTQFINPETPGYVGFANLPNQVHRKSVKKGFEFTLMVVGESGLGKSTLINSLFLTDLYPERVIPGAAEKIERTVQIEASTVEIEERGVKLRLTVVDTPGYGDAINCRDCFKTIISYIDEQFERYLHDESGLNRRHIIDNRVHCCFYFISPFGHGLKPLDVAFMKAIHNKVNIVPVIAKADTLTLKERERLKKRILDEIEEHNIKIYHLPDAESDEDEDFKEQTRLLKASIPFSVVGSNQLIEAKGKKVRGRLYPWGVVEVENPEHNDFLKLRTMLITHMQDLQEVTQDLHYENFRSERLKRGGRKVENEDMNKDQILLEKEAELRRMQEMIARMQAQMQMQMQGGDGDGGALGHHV
Kind of experiment: co-IP; whole-cell lysates immunoprecipitated with an anti-SEPT2 antibody; SEPT2 WT against K74R.

For experiment [2], the target named is T2, SEPT2-K74R (in the whole-cell lysate of the co-IP with P85α) (UniProt Q15019).
T2 sequence: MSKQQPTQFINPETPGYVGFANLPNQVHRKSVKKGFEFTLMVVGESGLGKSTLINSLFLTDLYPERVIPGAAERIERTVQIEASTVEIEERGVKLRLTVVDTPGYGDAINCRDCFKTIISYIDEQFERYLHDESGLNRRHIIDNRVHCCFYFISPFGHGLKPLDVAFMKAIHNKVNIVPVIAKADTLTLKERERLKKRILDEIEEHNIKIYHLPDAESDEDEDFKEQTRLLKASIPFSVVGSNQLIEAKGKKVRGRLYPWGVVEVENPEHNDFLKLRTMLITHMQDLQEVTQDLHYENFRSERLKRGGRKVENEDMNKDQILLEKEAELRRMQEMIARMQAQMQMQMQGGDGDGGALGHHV
Described as above.

The target of the next experiment is T3, GST-tagged SEPT2-WT (UniProt Q15019).
T3 sequence: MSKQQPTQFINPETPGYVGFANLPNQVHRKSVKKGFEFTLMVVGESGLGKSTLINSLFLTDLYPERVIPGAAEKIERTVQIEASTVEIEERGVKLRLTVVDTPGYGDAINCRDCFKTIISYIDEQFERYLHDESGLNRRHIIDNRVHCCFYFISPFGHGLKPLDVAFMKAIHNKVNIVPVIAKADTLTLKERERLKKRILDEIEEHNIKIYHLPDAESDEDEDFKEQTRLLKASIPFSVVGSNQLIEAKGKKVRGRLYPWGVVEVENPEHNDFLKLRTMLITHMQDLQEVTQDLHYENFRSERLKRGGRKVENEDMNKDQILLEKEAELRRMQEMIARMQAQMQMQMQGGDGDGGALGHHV
The experiment is described as follows: pull-down; purified GST-tagged SEPT2-WT or SEPT2-K74R mixed with anti-GST antibody-conjugated beads and cell lysate (0.3% Nonidet P40 IP lysis buffer), 4 °C, 12 h; five washes with 0.5% Nonidet P40 IP lysis buffer; Western blot; only the target purified. For orientation: A western blot detects proteins with antibodies after separation by electrophoresis.

For another experiment, the target named is T4, GST-tagged SEPT2-K74R (UniProt Q15019).
T4 sequence: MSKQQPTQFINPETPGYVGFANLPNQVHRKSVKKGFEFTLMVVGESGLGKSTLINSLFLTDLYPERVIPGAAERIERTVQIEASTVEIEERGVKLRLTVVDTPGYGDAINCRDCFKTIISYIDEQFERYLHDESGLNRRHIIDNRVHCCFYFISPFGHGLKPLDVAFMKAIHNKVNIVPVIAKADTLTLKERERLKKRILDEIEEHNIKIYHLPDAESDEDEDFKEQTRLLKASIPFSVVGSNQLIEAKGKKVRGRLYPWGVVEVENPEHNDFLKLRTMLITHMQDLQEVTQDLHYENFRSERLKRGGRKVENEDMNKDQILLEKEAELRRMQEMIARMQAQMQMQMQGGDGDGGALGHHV
The experiment is described as above.

In the next experiment the target is T5, Flag-SIRT2 (UniProt Q8IXJ6).
T5 sequence: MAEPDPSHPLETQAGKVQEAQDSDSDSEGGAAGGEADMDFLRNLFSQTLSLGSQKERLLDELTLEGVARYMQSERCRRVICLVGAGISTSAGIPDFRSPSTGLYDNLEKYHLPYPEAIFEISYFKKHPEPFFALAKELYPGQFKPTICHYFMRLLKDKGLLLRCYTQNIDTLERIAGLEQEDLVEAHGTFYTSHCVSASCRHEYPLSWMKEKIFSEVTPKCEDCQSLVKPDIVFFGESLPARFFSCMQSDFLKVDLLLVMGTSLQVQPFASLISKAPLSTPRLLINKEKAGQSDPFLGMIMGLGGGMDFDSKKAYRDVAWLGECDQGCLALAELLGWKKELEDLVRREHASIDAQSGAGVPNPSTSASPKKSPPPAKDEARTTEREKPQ
The experiment is described as follows: co-IP; whole-cell lysates immunoprecipitated with control IgG and anti-Flag antibody; blots with anti-SEPT2 and anti-Flag (Flag-SIRT2).

The target of a further experiment is T6, GST-tagged SIRT2 (UniProt Q8IXJ6).
T6 sequence: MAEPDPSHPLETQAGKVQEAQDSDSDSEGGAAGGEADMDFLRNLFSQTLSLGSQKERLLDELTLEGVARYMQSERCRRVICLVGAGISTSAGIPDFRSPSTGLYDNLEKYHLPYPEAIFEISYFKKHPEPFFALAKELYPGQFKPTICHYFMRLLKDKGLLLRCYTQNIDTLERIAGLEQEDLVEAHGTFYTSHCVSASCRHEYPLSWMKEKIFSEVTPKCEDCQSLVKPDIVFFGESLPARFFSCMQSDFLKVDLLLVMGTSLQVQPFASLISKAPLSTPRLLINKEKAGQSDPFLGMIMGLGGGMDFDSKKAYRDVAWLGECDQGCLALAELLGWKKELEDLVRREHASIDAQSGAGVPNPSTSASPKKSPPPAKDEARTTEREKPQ
Kind of experiment: pull-down; purified GST-tagged SIRT2 mixed with purified recombinant Flag-SEPT2 and anti-GST antibody-conjugated beads, 4 °C, 12 h; five washes with 0.5% Nonidet P40 IP lysis buffer; Western blot; both purified.

For P85α (from UniProt P27986 1-724), the binding entry (in experiment [1]; in experiment [2]; in the experiment with GST-tagged SEPT2-WT; in the experiment with GST-tagged SEPT2-K74R) was “binds” each time.

B1: SEPT2 (in the lysate of the co-IP with Flag-SIRT2) (protein, UniProt Q15019 1-361)
chain: MSKQQPTQFINPETPGYVGFANLPNQVHRKSVKKGFEFTLMVVGESGLGKSTLINSLFLTDLYPERVIPGAAEKIERTVQIEASTVEIEERGVKLRLTVVDTPGYGDAINCRDCFKTIISYIDEQFERYLHDESGLNRRHIIDNRVHCCFYFISPFGHGLKPLDVAFMKAIHNKVNIVPVIAKADTLTLKERERLKKRILDEIEEHNIKIYHLPDAESDEDEDFKEQTRLLKASIPFSVVGSNQLIEAKGKKVRGRLYPWGVVEVENPEHNDFLKLRTMLITHMQDLQEVTQDLHYENFRSERLKRGGRKVENEDMNKDQILLEKEAELRRMQEMIARMQAQMQMQMQGGDGDGGALGHHV
Take B1: the binding entry with Flag-SIRT2 was “binds”.

B2: recombinant Flag-SEPT2 (SEPT2 WT) (protein, UniProt Q15019 1-361)
chain: MSKQQPTQFINPETPGYVGFANLPNQVHRKSVKKGFEFTLMVVGESGLGKSTLINSLFLTDLYPERVIPGAAEKIERTVQIEASTVEIEERGVKLRLTVVDTPGYGDAINCRDCFKTIISYIDEQFERYLHDESGLNRRHIIDNRVHCCFYFISPFGHGLKPLDVAFMKAIHNKVNIVPVIAKADTLTLKERERLKKRILDEIEEHNIKIYHLPDAESDEDEDFKEQTRLLKASIPFSVVGSNQLIEAKGKKVRGRLYPWGVVEVENPEHNDFLKLRTMLITHMQDLQEVTQDLHYENFRSERLKRGGRKVENEDMNKDQILLEKEAELRRMQEMIARMQAQMQMQMQGGDGDGGALGHHV
As to B2, in the experiment with GST-tagged SIRT2, the binding entry is reported as “binds”.

(Values after article PMC10032003.)
